Values from PubChem BioAssay AID686943 (Drosophila RNAi Screening Center, 2013).
The screen tested about 23,000 reagents; this is an unselected part of those with a known target gene and a result. 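Extra replicates exist only for a retested subset of genes; insulin dose and duration not given; both raised and lowered dpERK matter.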 A plus sign joins genes that one reagent is predicted to hit. Not stated in the record: the amount of reagent, the time to read-out.

Aim: 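Search across the genome for regulators of signalling from receptor tyrosine kinase to ERK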 (primary screen)
Cells: Drosophila S2R+ haemocyte-like cells expressing YFP-tagged ERK (Rolled)
Reagents: long dsRNA against Drosophila genes
Challenge: insulin stimulation versus unstimulated cells; dose and duration not given
Measurement: 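Antibody staining for doubly phosphorylated ERK divided by ERK-YFP signal, as plate z-scores, in insulin-treated and untreated cells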
Reading the numbers: replicate 1, z-score of dpERK with insulin and replicate 2, z-score of dpERK with insulin: higher = more active ERK per ERK-YFP after insulin; replicate 1, z-score of dpERK under basal conditions: higher = more basal active ERK per ERK-YFP; replicate 1, z-score of ERK-YFP with insulin: higher = more YFP-tagged ERK signal

The opening 5 entries, ahead of the listing:
| Gene | dsRNA | replicate 1, z-score of dpERK with insulin | replicate 2, z-score of dpERK with insulin | replicate 1, z-score of dpERK under basal conditions | replicate 1, z-score of ERK-YFP with insulin |
| --- | --- | --- | --- | --- | --- |
| FucTB (GeneID 34260) | DRSC02745 | -0.22 | 0.15 | -0.73 | 0.3 |
| sit (GeneID 42658) | DRSC15760 | 0 | 0.77 | 0.84 | 0 |
| Naa40 (GeneID 43500) | DRSC16265 | 0.67 | -0.13 | 0.47 | 0.44 |
| BicD (GeneID 35051) | DRSC02006 | 0.22 | 0.46 | 0.75 | -0.3 |
| CG12464 (GeneID 36516) | DRSC06156 | 1.05 | -0.13 | -0.26 | -0.11 |

Main list, from the start:
| Gene | dsRNA | replicate 1, z-score of dpERK with insulin | replicate 2, z-score of dpERK with insulin | replicate 1, z-score of dpERK under basal conditions | replicate 1, z-score of ERK-YFP with insulin |
| --- | --- | --- | --- | --- | --- |
| FucTB (GeneID 34260) | DRSC02745 | -0.22 | 0.15 | -0.73 | 0.3 |
| sit (GeneID 42658) | DRSC15760 | 0 | 0.77 | 0.84 | 0 |
| Naa40 (GeneID 43500) | DRSC16265 | 0.67 | -0.13 | 0.47 | 0.44 |
| BicD (GeneID 35051) | DRSC02006 | 0.22 | 0.46 | 0.75 | -0.3 |
| CG12464 (GeneID 36516) | DRSC06156 | 1.05 | -0.13 | -0.26 | -0.11 |
| Pig1 (GeneID 31303) | DRSC18698 | -0.98 | -3.53 | -0.48 | -0.48 |
| CG4000 (GeneID 42451) | DRSC15535 | -0.06 | -0.02 | -0.59 | -0.06 |
| CG4000 (GeneID 42451) | DRSC21547 | 0.46 | -0.16 | -0.06 | -0.13 |
| CG13579 (GeneID 37905) | DRSC04215 | 0.14 | 1.38 | 0.8 | 0.61 |
| CG32204 (GeneID 317913) | DRSC09574 | 4.82 | 4.76 | 4.64 | -7.69 |
| CG7133 (GeneID 40449) | DRSC11798 | -0.08 | 0.14 | -0.16 | 0.62 |
| mRpS25 (GeneID 32395) | DRSC19598 | -0.28 | 0.23 | 0.33 | 0.14 |
| CG5866 (GeneID 42097) | DRSC15900 | -0.88 | -0.59 | -0.73 | 1.59 |
| CG34038 (GeneID 3885596) | DRSC04039 | -0.49 | 0.06 | 0.18 | 0.58 |
| fln (GeneID 40185) | DRSC11346 | -0.09 | 0.23 | -0.33 | -0.18 |
| CG13075 (GeneID 39756) | DRSC09958 | 0.47 | -0.08 | -0.26 | 0.3 |
| CG7611 (GeneID 40386) | DRSC11840 | -1.13 | -0.77 | -0.2 | 0.84 |
| RpL7-like (GeneID 34625) | DRSC02836 | 1.23 | -1.54 | -0.49 | -0.66 |
| CG33098 (GeneID 326253) | DRSC22903 | 0.94 | 0.39 | 0.13 | -0.63 |
| Or49b (GeneID 36413) | DRSC07494 | 0.05 | 0.02 | 0.72 | -0.64 |
| TpnC47D (GeneID 36195) | DRSC07564 | 0.2 | -1.15 | 0.45 | 0.42 |
| CG43106 (GeneID 12797866) | DRSC04279 | -0.33 | 0.18 | -0.98 | 0.85 |
| Mos (GeneID 36404) | DRSC07258 | 0.22 | 0.43 | -1.67 | 0.44 |
| CG4313 (GeneID 31169) | DRSC18514 | -0.54 | -1.08 | -0.85 | 1.23 |
| CG3434 (GeneID 39098) | DRSC10365 | 0.1 | -0.39 | -0.08 | 0.53 |
| Sld5 (GeneID 43166) | DRSC14892 | -0.6 | 0 | -1.28 | 0.39 |
| CG9643 (GeneID 33504) | DRSC00722 | 0.63 | 0.04 | 0.1 | -1.57 |
| AstA-R1 (GeneID 44126) | DRSC17278 | 1.03 | 0.62 | -0.04 | -0.51 |
| AstA-R1 (GeneID 44126) | DRSC17727 | 0.37 | -0.21 | 0.54 | -0.29 |
| CG12278 (GeneID 42486) | DRSC14494 | -0.95 | -1.49 | -0.34 | -0.44 |
| Inos (GeneID 35671) | DRSC07655 | 0.04 | -0.28 | -0.45 | -0.43 |
| l(3)04053 (GeneID 46158) | DRSC11640 | 1.19 | 0.43 | 0.54 | 0.25 |
| CG5662 (GeneID 32450) | DRSC19957 | -0.2 | 0.25 | -0.11 | -0.15 |
| CG42808 (GeneID 10178961) | DRSC06370 | -0.02 | 0.27 | 0.11 | 0.32 |
| CG14710 (GeneID 41393) | DRSC14933 | 0.06 | -0.04 | -0.23 | 1.83 |
| sand (GeneID 35777) | DRSC07245 | 0.3 | 0.49 | 0.05 | 0.08 |
| Incenp (GeneID 35649) | DRSC06116 | 0.54 | -0.09 | 0.3 | 0.05 |
| Incenp (GeneID 35649) | DRSC21950 | -0.26 | 0.48 | -0.36 | 0.97 |
| Vm26Ac (GeneID 33828) | DRSC02329 | 0.28 | -0.01 | -0.07 | 0.1 |
| PCNA2 (GeneID 35257) | DRSC02030 | 0.51 | 0.75 | -0.39 | 0.69 |
| Sp7 (GeneID 40918) | DRSC15461 | 0.13 | 0.91 | -0.27 | -0.03 |
| CG6974 (GeneID 41815) | DRSC16160 | -0.58 | 0.5 | 0.51 | 0.28 |
| CG12716 (GeneID 32248) | DRSC19493 | 0.42 | 0.63 | -0.28 | 0.14 |
| CG15563 (GeneID 43695) | DRSC15101 | -1.18 | -0.1 | 0.62 | 1.4 |
| CG9626 (GeneID 40979) | DRSC16525 | 0.23 | -0.44 | -0.24 | -0.13 |
| yip3 (GeneID 37683) | DRSC04724 | 2.29 | 0.79 | 1.98 | -1.14 |
| CG18518 (GeneID 34932) | DRSC01509 | -0.2 | 0.68 | -0.43 | 0.41 |
| REPTOR (GeneID 42930) | DRSC14626 | -0.04 | 1.13 | -0.85 | 0.62 |
| Cyt-c-p (GeneID 34996) | DRSC03310 | 1.43 | 0.66 | -0.43 | 0.37 |
| CR43670 + CR43671 + CR43669 | DRSC01554 | 0.72 | 0.06 | 0.34 | 0.32 |
| CR43670 + CR43671 + CR43669 | DRSC01556 | 0.68 | -0.09 | -0.47 | 0.39 |
| CG15498 (GeneID 42548) | DRSC15040 | 0.12 | 0.2 | -0.97 | 0.86 |
| dUTPase (GeneID 34529) | DRSC01998 | 0.34 | 0.39 | 0.31 | -0.16 |
| Sptz (GeneID 41370) | DRSC15758 | 0.13 | -0.23 | 1.25 | -0.31 |
| fray (GeneID 44233) | DRSC16950 | 0.88 | 0.46 | -0.58 | -0.12 |
| CG33298 (GeneID 2768929) | DRSC02210 | 0.15 | 0.13 | -1.15 | 1.01 |
| CG33298 (GeneID 2768929) | DRSC02672 | -0.02 | 0.23 | 3.36 | 0.19 |
